Measurements: paper PMC3720655
Results are given in words; binding and its absence hold for the method and conditions named. Binding seen in cells or lysates may run through a third protein. Some results given as binding are weak or reduced against the parent protein; the word gives no strength. Sequences can lack the tags named with a protein. Values belong to the molecule of their own block, whether it stands above or below them.

Chains of the proteins cited; added tags and fusions are not shown. Residues count along the entry.
UniProt Q14573: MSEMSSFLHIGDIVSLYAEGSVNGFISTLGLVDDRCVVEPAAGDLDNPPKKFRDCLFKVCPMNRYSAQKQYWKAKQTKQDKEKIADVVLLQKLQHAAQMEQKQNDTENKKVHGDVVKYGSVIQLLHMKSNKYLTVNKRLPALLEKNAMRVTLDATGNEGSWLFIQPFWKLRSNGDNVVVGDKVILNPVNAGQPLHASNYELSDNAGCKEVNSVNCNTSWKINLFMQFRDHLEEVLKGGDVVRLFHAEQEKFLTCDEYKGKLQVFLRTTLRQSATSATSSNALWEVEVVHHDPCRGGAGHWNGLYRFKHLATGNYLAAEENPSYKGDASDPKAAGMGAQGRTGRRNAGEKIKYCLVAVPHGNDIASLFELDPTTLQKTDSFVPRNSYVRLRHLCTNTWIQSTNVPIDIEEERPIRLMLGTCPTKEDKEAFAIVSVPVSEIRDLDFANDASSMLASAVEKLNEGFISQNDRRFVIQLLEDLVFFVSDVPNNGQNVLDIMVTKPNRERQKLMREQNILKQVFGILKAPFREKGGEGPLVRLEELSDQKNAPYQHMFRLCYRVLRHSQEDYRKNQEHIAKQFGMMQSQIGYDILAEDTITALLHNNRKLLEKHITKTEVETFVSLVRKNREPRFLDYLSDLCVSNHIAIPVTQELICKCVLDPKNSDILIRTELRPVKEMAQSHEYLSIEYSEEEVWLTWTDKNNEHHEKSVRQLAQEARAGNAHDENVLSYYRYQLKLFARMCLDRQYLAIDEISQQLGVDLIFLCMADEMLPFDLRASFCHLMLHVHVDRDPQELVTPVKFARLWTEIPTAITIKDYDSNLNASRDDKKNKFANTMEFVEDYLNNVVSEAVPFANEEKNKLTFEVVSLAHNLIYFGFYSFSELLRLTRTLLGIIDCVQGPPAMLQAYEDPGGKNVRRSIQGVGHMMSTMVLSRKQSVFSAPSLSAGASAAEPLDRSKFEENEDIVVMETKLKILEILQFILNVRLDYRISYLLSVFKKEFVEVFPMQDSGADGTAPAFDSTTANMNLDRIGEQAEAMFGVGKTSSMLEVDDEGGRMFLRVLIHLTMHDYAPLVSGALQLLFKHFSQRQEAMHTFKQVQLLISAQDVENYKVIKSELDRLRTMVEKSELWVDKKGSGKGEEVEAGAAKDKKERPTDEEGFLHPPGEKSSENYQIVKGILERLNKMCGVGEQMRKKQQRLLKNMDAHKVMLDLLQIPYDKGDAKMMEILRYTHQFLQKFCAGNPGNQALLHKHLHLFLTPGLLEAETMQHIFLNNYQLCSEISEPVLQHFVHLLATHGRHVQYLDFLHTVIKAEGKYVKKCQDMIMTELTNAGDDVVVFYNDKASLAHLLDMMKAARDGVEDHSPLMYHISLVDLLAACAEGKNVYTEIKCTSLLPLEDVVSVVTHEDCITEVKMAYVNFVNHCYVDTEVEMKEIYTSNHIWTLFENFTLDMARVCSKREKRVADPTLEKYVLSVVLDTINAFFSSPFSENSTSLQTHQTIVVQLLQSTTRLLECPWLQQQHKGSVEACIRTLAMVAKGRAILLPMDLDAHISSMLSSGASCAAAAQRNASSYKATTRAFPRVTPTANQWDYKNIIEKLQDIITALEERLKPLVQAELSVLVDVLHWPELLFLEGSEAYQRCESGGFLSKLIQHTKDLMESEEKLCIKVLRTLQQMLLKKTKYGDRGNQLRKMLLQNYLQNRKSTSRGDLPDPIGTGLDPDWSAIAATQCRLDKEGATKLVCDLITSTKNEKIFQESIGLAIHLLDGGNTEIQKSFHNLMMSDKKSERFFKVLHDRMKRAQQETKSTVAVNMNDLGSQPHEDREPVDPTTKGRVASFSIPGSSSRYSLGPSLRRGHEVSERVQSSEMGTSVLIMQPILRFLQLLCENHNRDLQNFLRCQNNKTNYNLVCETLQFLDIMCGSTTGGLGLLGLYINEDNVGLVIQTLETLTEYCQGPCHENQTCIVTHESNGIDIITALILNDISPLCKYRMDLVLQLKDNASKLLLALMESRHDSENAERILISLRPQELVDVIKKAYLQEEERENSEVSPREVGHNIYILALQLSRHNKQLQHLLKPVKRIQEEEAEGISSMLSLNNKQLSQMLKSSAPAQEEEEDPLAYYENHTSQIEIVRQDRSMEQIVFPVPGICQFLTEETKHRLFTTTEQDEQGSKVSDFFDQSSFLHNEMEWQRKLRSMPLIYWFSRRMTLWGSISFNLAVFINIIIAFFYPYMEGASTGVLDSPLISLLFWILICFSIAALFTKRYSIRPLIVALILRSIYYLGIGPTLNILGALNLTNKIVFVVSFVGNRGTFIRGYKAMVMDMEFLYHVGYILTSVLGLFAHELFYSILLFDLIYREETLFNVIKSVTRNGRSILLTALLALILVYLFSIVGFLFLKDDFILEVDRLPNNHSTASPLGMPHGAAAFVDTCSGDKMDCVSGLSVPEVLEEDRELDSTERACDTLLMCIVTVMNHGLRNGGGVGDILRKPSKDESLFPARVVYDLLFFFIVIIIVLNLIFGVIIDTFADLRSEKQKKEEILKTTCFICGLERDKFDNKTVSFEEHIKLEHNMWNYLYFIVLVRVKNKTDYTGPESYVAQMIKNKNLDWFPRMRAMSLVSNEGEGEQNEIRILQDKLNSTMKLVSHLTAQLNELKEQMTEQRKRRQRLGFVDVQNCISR
UniProt P29317, residues 24-976: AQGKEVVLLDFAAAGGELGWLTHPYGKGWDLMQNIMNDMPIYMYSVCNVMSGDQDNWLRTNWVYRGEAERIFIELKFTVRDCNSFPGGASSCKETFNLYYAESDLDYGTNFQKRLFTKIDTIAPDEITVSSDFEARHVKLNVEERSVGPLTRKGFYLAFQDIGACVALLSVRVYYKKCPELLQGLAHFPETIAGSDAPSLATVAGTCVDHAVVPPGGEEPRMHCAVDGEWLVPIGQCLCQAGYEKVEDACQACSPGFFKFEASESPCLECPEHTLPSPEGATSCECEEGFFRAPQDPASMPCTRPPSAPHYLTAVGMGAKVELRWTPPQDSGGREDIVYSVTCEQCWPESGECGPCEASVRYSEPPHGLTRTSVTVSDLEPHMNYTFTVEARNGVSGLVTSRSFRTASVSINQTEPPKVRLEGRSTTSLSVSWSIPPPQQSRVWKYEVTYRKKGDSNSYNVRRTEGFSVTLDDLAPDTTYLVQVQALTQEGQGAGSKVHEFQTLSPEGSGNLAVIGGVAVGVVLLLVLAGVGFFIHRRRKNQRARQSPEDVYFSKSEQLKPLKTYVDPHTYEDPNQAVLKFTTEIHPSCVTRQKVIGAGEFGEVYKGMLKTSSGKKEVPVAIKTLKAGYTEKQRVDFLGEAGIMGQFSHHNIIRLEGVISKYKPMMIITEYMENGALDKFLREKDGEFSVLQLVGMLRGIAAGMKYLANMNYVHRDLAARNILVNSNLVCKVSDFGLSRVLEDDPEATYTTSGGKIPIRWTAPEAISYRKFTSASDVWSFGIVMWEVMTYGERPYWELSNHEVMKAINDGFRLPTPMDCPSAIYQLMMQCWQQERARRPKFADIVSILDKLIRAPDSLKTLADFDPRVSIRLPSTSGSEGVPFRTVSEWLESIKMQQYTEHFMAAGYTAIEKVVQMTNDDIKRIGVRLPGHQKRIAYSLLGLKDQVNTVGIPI

What was measured:
Test in all cases: co-IP; validation IP and Western blot; input KIAA1199-Cl.18 extract; anti-KIAA1199 antibody or antibody against the endogenous partner, Protein G or A/G beads; IP lysis buffer 150 mM NaCl, 1% NP-40, 50 mM Tris-HCl pH 8.0, overnight 4°C
[1] = biological target: T1, KIAA1199 (untagged, SW480 KIAA1199-Cl.18) (human) (UniProt Q8WUJ3)
T1 sequence: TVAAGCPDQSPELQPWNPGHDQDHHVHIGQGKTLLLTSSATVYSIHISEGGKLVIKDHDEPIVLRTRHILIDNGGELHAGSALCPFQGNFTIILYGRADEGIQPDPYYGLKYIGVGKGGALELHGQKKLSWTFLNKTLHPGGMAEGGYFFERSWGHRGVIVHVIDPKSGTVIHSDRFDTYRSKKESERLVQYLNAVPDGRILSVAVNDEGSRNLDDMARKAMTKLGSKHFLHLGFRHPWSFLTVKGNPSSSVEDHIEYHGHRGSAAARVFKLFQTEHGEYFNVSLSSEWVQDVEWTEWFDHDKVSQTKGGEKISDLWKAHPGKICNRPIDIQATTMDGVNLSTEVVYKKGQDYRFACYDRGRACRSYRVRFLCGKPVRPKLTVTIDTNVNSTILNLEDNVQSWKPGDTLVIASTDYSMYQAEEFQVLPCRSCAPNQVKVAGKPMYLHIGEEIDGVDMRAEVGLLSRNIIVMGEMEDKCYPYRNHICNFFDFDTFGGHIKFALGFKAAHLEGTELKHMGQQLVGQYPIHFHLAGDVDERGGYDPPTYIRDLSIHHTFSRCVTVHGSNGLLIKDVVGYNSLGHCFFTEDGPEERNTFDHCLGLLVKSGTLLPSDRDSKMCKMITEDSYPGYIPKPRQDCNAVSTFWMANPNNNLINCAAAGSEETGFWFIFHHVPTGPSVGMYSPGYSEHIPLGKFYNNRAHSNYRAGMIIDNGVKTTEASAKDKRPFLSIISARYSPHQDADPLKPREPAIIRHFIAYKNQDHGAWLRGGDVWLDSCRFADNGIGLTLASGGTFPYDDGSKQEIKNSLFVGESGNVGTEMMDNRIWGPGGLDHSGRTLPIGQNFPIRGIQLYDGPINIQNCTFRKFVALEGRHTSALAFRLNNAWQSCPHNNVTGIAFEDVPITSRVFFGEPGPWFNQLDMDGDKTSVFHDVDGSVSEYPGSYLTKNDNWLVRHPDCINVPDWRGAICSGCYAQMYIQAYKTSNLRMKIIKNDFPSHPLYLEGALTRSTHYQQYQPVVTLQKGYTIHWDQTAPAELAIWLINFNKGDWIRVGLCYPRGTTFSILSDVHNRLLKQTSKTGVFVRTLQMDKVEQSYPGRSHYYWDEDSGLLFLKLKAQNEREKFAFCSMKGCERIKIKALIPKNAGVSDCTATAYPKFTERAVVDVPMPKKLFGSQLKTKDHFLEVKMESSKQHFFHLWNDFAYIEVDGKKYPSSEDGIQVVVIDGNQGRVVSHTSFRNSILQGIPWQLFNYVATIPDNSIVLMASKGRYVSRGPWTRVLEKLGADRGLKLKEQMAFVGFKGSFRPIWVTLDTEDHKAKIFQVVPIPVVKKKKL

[2] = biological target: ITPR3 (human (endogenous in SW480)) (UniProt Q14573)
[3] = biological target: EPHA2 (human (endogenous in SW480)) (UniProt P29317)

binding [1]: binds weakly
Molecule: EPHA2 (from UniProt P29317 24-976) (receptor)

binding [1]: binds weakly
Molecule: ITPR3 (from UniProt Q14573 1-2671) (receptor)

binding [2]: binds weakly | binding [3]: binds weakly
B1: KIAA1199 (untagged, SW480 KIAA1199-Cl.18) (protein, UniProt Q8WUJ3 31-1361)
chain: T1 sequence
